{"sequences": {"note": "Amino acid sequences for entries named in this document (tags omitted).", "UniProt Q03164, whole entry, looked up": "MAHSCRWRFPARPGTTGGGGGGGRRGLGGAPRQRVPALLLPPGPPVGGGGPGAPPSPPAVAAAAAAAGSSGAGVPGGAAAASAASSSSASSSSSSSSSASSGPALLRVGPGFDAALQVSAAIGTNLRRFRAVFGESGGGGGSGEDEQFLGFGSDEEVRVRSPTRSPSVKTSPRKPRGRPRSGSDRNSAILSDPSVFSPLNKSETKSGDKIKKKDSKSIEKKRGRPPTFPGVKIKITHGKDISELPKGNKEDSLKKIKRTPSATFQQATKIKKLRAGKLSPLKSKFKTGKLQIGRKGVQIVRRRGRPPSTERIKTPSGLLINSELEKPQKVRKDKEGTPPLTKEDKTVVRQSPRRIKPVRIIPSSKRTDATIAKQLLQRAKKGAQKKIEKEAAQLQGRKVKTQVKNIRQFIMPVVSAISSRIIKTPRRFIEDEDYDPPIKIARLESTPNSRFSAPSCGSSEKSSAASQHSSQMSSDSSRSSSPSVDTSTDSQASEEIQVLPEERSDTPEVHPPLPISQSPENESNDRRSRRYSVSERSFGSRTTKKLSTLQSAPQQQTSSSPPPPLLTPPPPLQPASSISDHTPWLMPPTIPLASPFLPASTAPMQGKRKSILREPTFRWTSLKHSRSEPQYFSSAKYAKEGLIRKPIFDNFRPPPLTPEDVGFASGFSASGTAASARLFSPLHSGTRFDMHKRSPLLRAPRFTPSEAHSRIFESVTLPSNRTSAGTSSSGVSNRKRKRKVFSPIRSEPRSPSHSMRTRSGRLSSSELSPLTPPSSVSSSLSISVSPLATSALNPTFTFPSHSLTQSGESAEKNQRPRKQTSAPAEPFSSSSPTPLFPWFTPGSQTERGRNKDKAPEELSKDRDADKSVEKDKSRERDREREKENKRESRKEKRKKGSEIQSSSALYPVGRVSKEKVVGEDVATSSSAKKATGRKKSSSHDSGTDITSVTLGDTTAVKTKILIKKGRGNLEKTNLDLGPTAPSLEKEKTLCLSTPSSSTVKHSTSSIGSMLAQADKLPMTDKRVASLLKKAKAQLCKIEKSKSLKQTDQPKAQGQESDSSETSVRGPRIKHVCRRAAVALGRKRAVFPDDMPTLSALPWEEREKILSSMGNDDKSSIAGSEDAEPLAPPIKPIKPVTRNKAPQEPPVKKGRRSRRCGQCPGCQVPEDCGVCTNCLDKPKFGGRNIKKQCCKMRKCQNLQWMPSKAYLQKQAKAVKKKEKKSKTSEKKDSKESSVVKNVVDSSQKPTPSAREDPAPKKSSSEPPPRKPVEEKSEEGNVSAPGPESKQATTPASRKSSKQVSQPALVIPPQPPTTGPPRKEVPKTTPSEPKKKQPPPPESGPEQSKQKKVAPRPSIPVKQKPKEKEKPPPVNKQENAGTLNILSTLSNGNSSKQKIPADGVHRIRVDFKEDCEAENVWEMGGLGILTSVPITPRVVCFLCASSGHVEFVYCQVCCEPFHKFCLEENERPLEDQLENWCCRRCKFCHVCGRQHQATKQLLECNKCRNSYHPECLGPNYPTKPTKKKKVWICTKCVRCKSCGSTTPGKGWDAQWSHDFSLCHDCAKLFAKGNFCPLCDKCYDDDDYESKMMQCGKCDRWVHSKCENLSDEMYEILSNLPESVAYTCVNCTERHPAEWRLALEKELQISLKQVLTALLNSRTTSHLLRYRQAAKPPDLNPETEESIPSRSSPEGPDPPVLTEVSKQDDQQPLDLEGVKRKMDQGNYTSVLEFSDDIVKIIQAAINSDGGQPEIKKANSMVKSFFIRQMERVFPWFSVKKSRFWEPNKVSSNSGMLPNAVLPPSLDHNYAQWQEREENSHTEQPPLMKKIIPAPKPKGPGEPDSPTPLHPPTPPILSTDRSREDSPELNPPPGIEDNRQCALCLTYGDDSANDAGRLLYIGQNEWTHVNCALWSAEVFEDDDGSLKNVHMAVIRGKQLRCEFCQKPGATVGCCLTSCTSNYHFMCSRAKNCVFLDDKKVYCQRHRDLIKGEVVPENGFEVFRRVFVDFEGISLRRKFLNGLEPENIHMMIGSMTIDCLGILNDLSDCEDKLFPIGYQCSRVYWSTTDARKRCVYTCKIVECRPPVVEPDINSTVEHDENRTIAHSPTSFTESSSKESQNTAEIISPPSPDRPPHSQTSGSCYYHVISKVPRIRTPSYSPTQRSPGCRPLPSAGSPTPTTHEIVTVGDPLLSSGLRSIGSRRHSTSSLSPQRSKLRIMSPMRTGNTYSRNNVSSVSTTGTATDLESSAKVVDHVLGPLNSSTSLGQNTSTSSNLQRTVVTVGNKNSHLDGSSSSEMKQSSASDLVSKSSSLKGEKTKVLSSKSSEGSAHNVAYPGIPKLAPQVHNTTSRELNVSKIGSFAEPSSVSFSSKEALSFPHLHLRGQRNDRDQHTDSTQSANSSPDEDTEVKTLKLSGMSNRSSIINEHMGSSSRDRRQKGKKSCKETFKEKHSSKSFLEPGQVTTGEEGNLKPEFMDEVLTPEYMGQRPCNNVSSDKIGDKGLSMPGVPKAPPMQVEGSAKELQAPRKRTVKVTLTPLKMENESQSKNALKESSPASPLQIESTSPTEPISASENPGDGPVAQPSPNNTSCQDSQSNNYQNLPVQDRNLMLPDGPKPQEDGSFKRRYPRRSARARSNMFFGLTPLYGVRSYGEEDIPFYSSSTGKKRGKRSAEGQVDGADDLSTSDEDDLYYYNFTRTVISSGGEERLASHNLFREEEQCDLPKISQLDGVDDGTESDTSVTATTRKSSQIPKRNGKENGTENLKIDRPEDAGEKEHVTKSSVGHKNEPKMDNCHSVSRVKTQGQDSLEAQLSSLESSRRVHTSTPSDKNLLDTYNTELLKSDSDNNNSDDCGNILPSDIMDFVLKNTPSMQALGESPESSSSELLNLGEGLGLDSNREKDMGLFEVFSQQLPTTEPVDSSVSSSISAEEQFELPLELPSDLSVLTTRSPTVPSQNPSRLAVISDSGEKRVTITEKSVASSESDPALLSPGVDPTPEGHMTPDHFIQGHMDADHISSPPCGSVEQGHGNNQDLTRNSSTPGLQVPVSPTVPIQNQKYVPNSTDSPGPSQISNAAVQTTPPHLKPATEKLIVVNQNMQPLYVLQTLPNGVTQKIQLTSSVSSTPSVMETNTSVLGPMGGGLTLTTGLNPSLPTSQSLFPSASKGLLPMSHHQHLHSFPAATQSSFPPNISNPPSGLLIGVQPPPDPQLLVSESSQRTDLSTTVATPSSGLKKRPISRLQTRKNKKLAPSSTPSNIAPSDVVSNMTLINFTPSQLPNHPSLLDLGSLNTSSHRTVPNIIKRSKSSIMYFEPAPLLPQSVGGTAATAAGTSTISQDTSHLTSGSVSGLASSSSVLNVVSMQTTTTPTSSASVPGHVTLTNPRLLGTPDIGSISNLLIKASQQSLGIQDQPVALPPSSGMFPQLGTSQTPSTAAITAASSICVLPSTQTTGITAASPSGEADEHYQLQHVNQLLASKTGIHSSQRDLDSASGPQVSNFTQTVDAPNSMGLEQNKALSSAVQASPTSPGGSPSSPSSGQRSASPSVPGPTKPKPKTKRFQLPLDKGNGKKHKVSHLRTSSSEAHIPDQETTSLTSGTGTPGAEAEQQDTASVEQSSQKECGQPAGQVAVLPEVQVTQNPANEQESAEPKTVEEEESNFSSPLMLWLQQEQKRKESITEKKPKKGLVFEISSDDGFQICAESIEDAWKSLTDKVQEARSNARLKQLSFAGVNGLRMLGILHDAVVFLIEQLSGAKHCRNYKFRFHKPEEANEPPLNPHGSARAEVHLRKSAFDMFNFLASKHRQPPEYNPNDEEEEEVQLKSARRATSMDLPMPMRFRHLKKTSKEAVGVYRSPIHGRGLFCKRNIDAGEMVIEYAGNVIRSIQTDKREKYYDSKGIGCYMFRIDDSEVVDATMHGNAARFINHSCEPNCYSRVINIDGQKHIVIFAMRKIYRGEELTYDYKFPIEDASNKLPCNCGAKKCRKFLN"}, "source": "PubChem BioAssay AID2662", "about": "(National Center for Advancing Translational Sciences (NCATS), 2010)", "note": "Hit rate of the full screen: of about 290,000 compounds, about 110 (0.038%) were called active. This list was built around the results that the source calls inconclusive (neither active nor inactive); the mix of calls is not that of the screen. The call rests on the fitted dose curve; in most records, active means well fitted inhibition curve with a large enough effect in the polarisation, with a control signal flat (not every such curve was filed as active); inconclusive means small, poorly fitted or top-dose-only effect, or effect the other way, or a change in a side signal; inactive means no such curve, though single readings can be large or run the other way; the % refers to the polarisation. Where the call is inconclusive, the potency comes from a doubtful curve fit. A note “side channel” means that the fit belongs to a control or component signal, not to the main read-out. Potency means the concentration at half of the fitted maximal effect.", "data": [{"molecular_target": "Histone-lysine N-methyltransferase 2A (Homo sapiens) (UniProt Q03164)", "test": "qHTS Fluorescence Polarization Assay for Inhibitors of MLL CXXC domain - DNA interaction", "details": "MLL-CXXC / FITC-HOXA9 DNA fluorescence polarization; activity change, negative = inhibition: at 115 µM (top of the series)", "method_in_brief": "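Steps: dispense CXXC domain solution (7 uM) → pin compounds or unlabeled HOX-A9 DNA control → 5 min ambient → add FLSN-HOX-A9 solution (50 nM) → spin → 30 min ambient → fluorescence polarization. Tris pH 7.5/NaCl/DTT/BSA buffer.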", "values": [{"smiles": "Cc1cc2[nH]c3c(c[n+](C)c4ccccc34)c2cc1C", "Potency": "inconclusive: 11.2 µM [quencher, side channel, partial curve]"}, {"smiles": "O=C(Cc1cc(=O)[nH][nH]1)N/N=C/c1c(Cl)cccc1Cl", "Potency": "inconclusive: 14.1 µM [quencher, side channel, single point]"}, {"smiles": "Cc1ccc(S(=O)(=O)N2CCCCC2)cc1NC(=O)Cn1ccc(C(F)(F)F)n1", "Potency": "inconclusive: 50.1 µM [quencher, side channel, single point]"}, {"smiles": "Cc1ccc(NS(=O)(=O)c2ccc3c(c2)n(C)c(=O)n3C)cc1", "Potency": "inconclusive: 70.8 µM [fluorescent, side channel, single point]"}, {"smiles": "Cc1ccc(NC(=S)Nc2cccc3ccccc23)cc1", "Potency": "inconclusive: 8.91 µM [fluorescent, side channel, partial curve]"}, {"smiles": "C=C(C)c1cccc(C(C)(C)NC(=O)NCc2cccnc2)c1", "Potency": "inconclusive: 1.41 µM [inhibitor, partial curve, poor fit]"}, {"smiles": "O=c1[nH]c2ccccc2nc1-c1c[nH]c2ccccc12", "Potency": "inconclusive: 39.8 µM [fluorescent, side channel, partial curve]"}, {"smiles": "COc1ccc2oc(C(=O)OCC(=O)Nc3ccc(C(=O)N(C)C)cc3)c(C)c2c1", "Potency": "inconclusive: 14.1 µM [quencher, side channel, single point]"}, {"smiles": "CN(C)S(=O)(=O)c1cccc(NC(=O)COC(=O)CCC(=O)c2ccc(F)cc2)c1", "Potency": "inconclusive: 8.91 µM [fluorescent, side channel, single point]"}, {"smiles": "COc1ccc(NC(=O)NNC(=O)COc2cc(C)c(Cl)c(C)c2)c(OC)c1", "Potency": "inconclusive: 14.1 µM [fluorescent, side channel, single point]"}, {"smiles": "COc1cccc(-c2ccc(NC(=O)C3CCCN(Cc4cnc(C)n4C)C3)cc2)c1", "note": "(stereo not given)", "Potency": "inconclusive: 79.4 µM [quencher, side channel, single point]"}, {"smiles": "CCCCc1nnc(NC(=O)CN2C(=O)NC3(CCCCC3)C2=O)s1", "Potency": "inconclusive: 15.8 µM [fluorescent, side channel, single point]"}, {"smiles": "O=C(Nc1ccccc1)c1c(F)cccc1F", "activity change, negative = inhibition": "inactive: 15.2%"}, {"smiles": "CCCCSc1nc2c(=O)[nH][nH]c(=O)c2n1Cc1ccccc1", "Potency": "inconclusive: 20 µM [fluorescent, side channel, partial curve]"}, {"smiles": "COc1cccc(NC(=O)c2ccc3c(c2)CCCC3)c1", "activity change, negative = inhibition": "inactive: 23.4%"}, {"smiles": "O=C1c2ccccc2-c2onc3ccc(N4CCCC4)c1c23", "Potency": "inconclusive: 39.8 µM [fluorescent, side channel, partial curve]"}, {"smiles": "CCOC(=O)CC1(C)OCC(C[N+]2(C)CCCCC2)O1", "note": "(stereo not given)", "activity change, negative = inhibition": "inactive: 4.26%"}, {"smiles": "Cc1ccccc1CN1CCCC(C(=O)N2CCCCC2)C1", "note": "(stereo not given)", "Potency": "inconclusive: 35.5 µM [fluorescent, side channel, single point]"}, {"smiles": "COc1ccc(CN2CCc3c([nH]c4ccccc34)C2)c(OC)c1C", "Potency": "inconclusive: 28.2 µM [quencher, side channel, partial curve]"}, {"smiles": "O=C1NC(c2ccco2)Nc2ccccc21", "note": "(stereo not given)", "activity change, negative = inhibition": "inactive: -5.38%"}, {"smiles": "COc1ccccc1N1C(=O)c2cccc3c(Cl)ccc(c23)C1=O", "Potency": "inconclusive: 15.8 µM [fluorescent, side channel, single point]"}, {"smiles": "Cn1cccc1C(=O)/C(C#N)=C/c1ccc(F)cc1", "Potency": "inconclusive: 31.6 µM [fluorescent, side channel, partial curve]"}, {"smiles": "O=C1CCCN1CCC(=O)N1CCCC(Nc2ccc(F)c(F)c2)C1", "note": "(stereo not given)", "Potency": "inconclusive: 63.1 µM [inhibitor, single point]"}, {"smiles": "COc1ccc2[nH]c(C(=O)Nc3ccc4c(c3)OCO4)cc2c1", "Potency": "inconclusive: 70.8 µM [inhibitor, single point]"}, {"smiles": "CC(C)CC(=O)Nc1c2c(nn1-c1cccc(Cl)c1)CS(=O)C2", "note": "(stereo not given)", "Potency": "inconclusive: 14.1 µM [fluorescent, side channel, single point]"}, {"smiles": "CC1=CC2=NC(=O)/C(=C\\c3ccc(-c4ccc(Cl)cc4)o3)C(=N)N2O1", "Potency": "inconclusive: 35.5 µM [fluorescent, side channel, partial curve]"}, {"smiles": "Cc1ccc(N2C(=O)c3cccc4c(N5CCN(C)CC5)ccc(c34)C2=O)c2cccnc12", "Potency": "inconclusive: 7.94 µM [fluorescent, side channel, partial curve]"}, {"smiles": "CN(C)CCCNS(=O)(=O)c1ccc(Cl)s1", "Potency": "inconclusive: 12.6 µM [fluorescent, side channel, partial curve, poor fit]"}, {"smiles": "CCN(CC)CCCN(C(=O)c1ccc(F)cc1)c1nc(-c2ccc(OC)cc2)cs1", "Potency": "inconclusive: 25.1 µM [quencher, side channel, partial curve]"}, {"smiles": "CCOc1ccc2nc3c(cc2c1)CN(CCOC)C(=NC)S3", "activity change, negative = inhibition": "inactive: -1.96%"}, {"smiles": "O=C(C1=NN(c2ccccc2)C2C(=O)N(c3ccccc3)C(=O)C12)c1ccccc1", "note": "(stereo not given)", "Potency": "inconclusive: 35.5 µM [fluorescent, single point]"}, {"smiles": "Cc1cc(C)c2cc3c(ccn3C3OC[C@H](O)[C@H](O)[C@H]3O)cc2n1", "note": "(stereo not given in full)", "Potency": "inconclusive: 89.1 µM [inhibitor, single point]"}, {"smiles": "C/C(=C\\c1cccc(Cl)c1)C(=O)c1c(C)cc(C)[nH]c1=O", "Potency": "inconclusive: 70.8 µM [fluorescent, side channel, single point]"}, {"smiles": "COc1ccc(CNS(=O)(=O)c2cn(C)c(=O)n(C)c2=O)cc1", "activity change, negative = inhibition": "inactive: -2.13%"}, {"smiles": "O=C(Nn1cnnc1)c1ccccc1Cl", "Potency": "inconclusive: 31.6 µM [fluorescent, side channel, single point]"}, {"smiles": "Cc1ccc(NC(=O)c2cc(=O)[nH]c3ccccc23)cc1", "Potency": "inconclusive: 14.1 µM [fluorescent, side channel, full curve]"}, {"smiles": "O=C1CCCC2=C1Sc1ccccc1N2", "Potency": "inconclusive: 31.6 µM [inhibitor, partial curve]"}, {"smiles": "Cc1c(Nc2c3c(c(C#N)c4nc5ccccc5n24)CCC3)c(=O)n(-c2ccccc2)n1C", "activity change, negative = inhibition": "inactive: -9.54%"}, {"smiles": "COCCN(CCOC)Cc1c(O)ccc2c1O/C(=C\\c1ccc(C)o1)C2=O", "Potency": "inconclusive: 31.6 µM [fluorescent, side channel, partial curve]"}, {"smiles": "CCN(CC)CCOC(=O)c1ccc(N/C=C(/C#N)c2nc(-c3ccc(OC)c(OC)c3)cs2)cc1", "Potency": "inconclusive: 31.6 µM [quencher, side channel, partial curve]"}, {"smiles": "CCN(C(=O)c1cn(C)c(=O)c2cc(OC)c(OC)cc12)c1cc(OC)ccc1OC", "activity change, negative = inhibition": "inactive: -8.68%"}, {"smiles": "C1=C(CCNc2ncnc3c2[nH]c2ccccc23)CCCC1", "activity change, negative = inhibition": "inactive: 8.88%"}, {"smiles": "Cc1[nH]n(-c2ccccc2)c(=O)c1N=Nc1ccc(C(=O)O)cc1", "activity change, negative = inhibition": "inactive: 2.06%"}, {"smiles": "COc1ccccc1C(=O)NNC(=S)NC(=O)c1sc2ccccc2c1Cl", "Potency": "inconclusive: 14.1 µM [inhibitor, single point]"}, {"smiles": "CN(C)c1ccc(/C=C2\\SC(=S)N(Nc3ncc(C(F)(F)F)cc3Cl)C2=O)cc1", "Potency": "active: 3.16 µM"}, {"smiles": "O=C(O)CC12C[C@H]3C[C@@H](C1)CC(n1ncc(N4CCN(c5ccccc5)CC4)c(Cl)c1=O)(C3)C2", "Potency": "inconclusive: 63.1 µM [inhibitor, single point]"}, {"smiles": "CCOC(=O)c1c(C)n(C)c2cc(Br)c(C(=O)OC)cc12", "Potency": "inconclusive: 6.31 µM [fluorescent, side channel, single point]"}, {"smiles": "CCc1ccc(CN(C)C(=O)C2CCC(=O)N(CC3CCCCC3)C2)cc1", "note": "(stereo not given)", "Potency": "inconclusive: 11.2 µM [fluorescent, side channel, single point]"}, {"smiles": "CCOC(=O)CS(=O)(=O)c1nc(-c2ccc(F)cc2)cc(C(F)(F)F)n1", "Potency": "inconclusive: 25.1 µM [quencher, side channel, partial curve]"}, {"smiles": "O=C(Nc1ccc(Cl)c(Cl)c1)c1ccc(Cn2c(=O)[nH]c3ccsc3c2=O)cc1", "activity change, negative = inhibition": "inactive: 13.9%"}, {"smiles": "CC(=O)Nc1ccccc1OCC(=O)N(Cc1ccccc1)C(C)C", "Potency": "inconclusive: 5.01 µM [fluorescent, side channel, partial curve]"}, {"smiles": "COC(=O)Nc1ccc(S(=O)(=O)Nc2ncccn2)cc1", "Potency": "inconclusive: 31.6 µM [fluorescent, side channel, partial curve]"}, {"smiles": "CC1(C)OC(=O)C(=Cc2ccc(-c3ccc(S(N)(=O)=O)cc3)o2)C(=O)O1", "Potency": "inconclusive: 15.8 µM [inhibitor, full curve, poor fit]"}, {"smiles": "O=C(O)c1nn(-c2ccccc2)nc1-c1nn(-c2ccccc2)nc1C(=O)O", "activity change, negative = inhibition": "inactive: -3.41%"}, {"smiles": "Cn1c(N)c(C(=O)COC(=O)CNS(=O)(=O)c2ccc(Cl)c(Cl)c2)c(=O)n(C)c1=O", "activity change, negative = inhibition": "inactive: -3.31%"}, {"smiles": "Cc1cnc(Nc2nc3ccccc3o2)nc1C(=O)Nc1cccc(C(F)(F)F)c1", "activity change, negative = inhibition": "inactive: 1.46%"}, {"smiles": "CN1C(=S)SC(/[N+]([O-])=C\\c2ccccc2)C1(C)C", "note": "(stereo not given)", "Potency": "inconclusive: 10 µM [fluorescent, side channel, full curve, poor fit]"}, {"smiles": "C=C1C(=O)O[C@H]2C[C@]3(C)C([C@@H](OC(=O)/C(C)=C/C)[C@H]12)[C@](C)(O)CC[C@H]3O", "note": "(stereo not given in full)", "Potency": "inconclusive: 14.1 µM [quencher, side channel, single point]"}, {"smiles": "COc1ccc(F)cc1C(=O)C1CCCN(C(=O)c2ocnc2C)C1", "note": "(stereo not given)", "Potency": "inconclusive: 14.1 µM [inhibitor, single point]"}, {"smiles": "O=C(Nn1cnc2ccccc2c1=O)c1ccc(Br)cc1", "Potency": "inconclusive: 70.8 µM [fluorescent, side channel, partial curve]"}]}]}
